PubChem BioAssay AID504791 – Drosophila RNAi Screening Center, 2011
The deposit covers about 23,000 reagents; shown is a random part of those with a known target gene and a result. Over the whole deposit, 199 (0.86%) are marked active. 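Plate-scaled ratios behind the calls are not deposited; printed light signals are raw; many rows marked increased or decreased are still called inactive.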 A plus sign joins genes that one reagent is predicted to hit. The record does not give: the direction of the score.

- Assay: 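Factors in Argonaute-based small RNA production and activity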 (primary screen)
- System: Drosophila S2-derived reporter cells
- Reagents: long dsRNA against Drosophila genes, about 150-250 ng dsRNA per well (siRNA assay); about 80-120 ng (miRNA assay)
- Timing: about 5 days (siRNA assay); about 4 days (miRNA assay)
- Challenge: copper sulfate induction of reporters: 25 µM (siRNA assay); 200 mM stated (miRNA assay), 1-2 days before reading
- Measurement: 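Per-well ratio of Renilla over firefly light, expressed relative to that plate's average ratio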
- Rule for the call: 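a well was a first-pass pick when its plate-scaled ratio rose above 1.5 (siRNA assay) or 1.6 (miRNA assay), or dropped below 0.6; a gene counted only if two separate dsRNAs agreed on retest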

CG8516 [DRSC16437] showed stable assay Renilla, run 1 (luminescence) = 7231; stable assay firefly, run 1 (luminescence) = 3.79e5; inactive.
Against pcm (pacman) [DRSC20361], the values are stable assay Renilla, run 1 (luminescence) = 8294; stable assay firefly, run 1 (luminescence) = 6.00e5; inactive.
With knock-down of PolA2 (DNA polymerase alpha subunit 2) [DRSC16641], the record shows stable assay Renilla, run 1 (luminescence) = 6778; stable assay firefly, run 1 (luminescence) = 3.97e5; inactive.
Against CG13457 [DRSC10004], the values are stable assay Renilla, run 1 (luminescence) = 6198; stable assay firefly, run 1 (luminescence) = 3.47e5; inactive.
CG15914 [DRSC19739] scored stable assay Renilla, run 1 (luminescence) = 5898; stable assay firefly, run 1 (luminescence) = 3.27e5; inactive.
Depletion of Ntmt (N-terminal methyltransferase) [DRSC06624] came out at: stable assay Renilla, run 1 (luminescence) = 7218; stable assay firefly, run 1 (luminescence) = 4.41e5; inactive.
Depletion of DCTN4-p62 (Dynactin 4, p62 subunit) [DRSC06101] resulted in: stable assay Renilla, run 1 (luminescence) = 9695; stable assay firefly, run 1 (luminescence) = 7.50e5; inactive.
After knock-down of smg (smaug) [DRSC11397], the record shows stable assay Renilla, run 1 (luminescence) = 8442; stable assay firefly, run 1 (luminescence) = 4.07e5; inactive.
CG11426 [DRSC11658] gave stable assay Renilla, run 1 (luminescence) = 7363; stable assay firefly, run 1 (luminescence) = 3.85e5; inactive.
Against CG32228 [DRSC22296], the values are stable assay Renilla, run 1 (luminescence) = 8831; stable assay firefly, run 1 (luminescence) = 4.65e5; inactive.
After knock-down of CG11019 (retired record) [DRSC02117], the screen gave stable assay Renilla, run 1 (luminescence) = 7566; stable assay firefly, run 1 (luminescence) = 4.03e5; inactive.
Against ohgt (ohgata) [DRSC15521], the entry reads stable assay Renilla, run 1 (luminescence) = 7155; stable assay firefly, run 1 (luminescence) = 5.27e5; inactive.
Knock-down of NT1 (Neurotrophin 1) [DRSC08530] came out at: stable assay Renilla, run 1 (luminescence) = 6187; stable assay firefly, run 1 (luminescence) = 5.36e5; inactive.
Knock-down of NT1 (Neurotrophin 1) [DRSC22895] gave: stable assay Renilla, run 1 (luminescence) = 4140; stable assay firefly, run 1 (luminescence) = 3.72e5; inactive.
CG11249 [DRSC11645] gave stable assay Renilla, run 1 (luminescence) = 7530; stable assay firefly, run 1 (luminescence) = 4.70e5; inactive.
With knock-down of CG6380 [DRSC02950], the record shows stable assay Renilla, run 1 (luminescence) = 7235; stable assay firefly, run 1 (luminescence) = 4.29e5; inactive.
Against CG7512 [DRSC10863], the entry reads stable assay Renilla, run 1 (luminescence) = 7911; stable assay firefly, run 1 (luminescence) = 4.75e5; inactive.
After knock-down of CG2267 [DRSC15435] the results were stable assay Renilla, run 1 (luminescence) = 6996; stable assay firefly, run 1 (luminescence) = 4.09e5; inactive.
Knock-down of CG31898 [DRSC01019] resulted in: stable assay Renilla, run 1 (luminescence) = 5443; stable assay firefly, run 1 (luminescence) = 4.60e5; inactive.
Silencing of CG42362 + CG42363 [DRSC04265] gave: stable assay Renilla, run 1 (luminescence) = 9348; stable assay firefly, run 1 (luminescence) = 3.43e5; inactive.
Silencing of Nthl1 (Nth-like DNA glycosylase 1) [DRSC03183] gave: stable assay Renilla, run 1 (luminescence) = 6598; stable assay firefly, run 1 (luminescence) = 4.73e5; inactive.
For CG8840 [DRSC00713], the values are stable assay Renilla, run 1 (luminescence) = 7736; stable assay firefly, run 1 (luminescence) = 4.43e5; inactive.

Targets listed so far whose gene name starts with P or p:
pcm (pacman) [DRSC20361] — stable assay Renilla, run 1 (luminescence): 8294; stable assay firefly, run 1 (luminescence): 6.00e5; Call: inactive
PolA2 (DNA polymerase alpha subunit 2) [DRSC16641] — stable assay Renilla, run 1 (luminescence): 6778; stable assay firefly, run 1 (luminescence): 3.97e5; Call: inactive

The listing continues:
Silencing of CG6569 [DRSC16067] gave: stable assay Renilla, run 1 (luminescence) = 7701; stable assay firefly, run 1 (luminescence) = 3.58e5; inactive.
With knock-down of NSD (Nuclear receptor binding SET domain protein) [DRSC15691], the record shows stable assay Renilla, run 1 (luminescence) = 6572; stable assay firefly, run 1 (luminescence) = 4.16e5; inactive.
Knock-down of CG8191 [DRSC20091] came out at: stable assay Renilla, run 1 (luminescence) = 5019; stable assay firefly, run 1 (luminescence) = 4.26e5; inactive.
Against Fbxl4 (F box and leucine-rich-repeat gene 4) [DRSC19805] the deposit lists stable assay Renilla, run 1 (luminescence) = 8039; stable assay firefly, run 1 (luminescence) = 4.97e5; inactive.
With knock-down of CG10376 [DRSC02049] the results were stable assay Renilla, run 1 (luminescence) = 6759; stable assay firefly, run 1 (luminescence) = 1.08e6; inactive.
After knock-down of CG9171 [DRSC03152], the record shows stable assay Renilla, run 1 (luminescence) = 37259; stable assay firefly, run 1 (luminescence) = 5.28e5; inactive.
Silencing of CG9171 [DRSC21813] resulted in: stable assay Renilla, run 1 (luminescence) = 8963; stable assay firefly, run 1 (luminescence) = 4.12e5; inactive.
Against CCHa2 (CCHamide-2) [DRSC14835], the entry reads stable assay Renilla, run 1 (luminescence) = 4123; stable assay firefly, run 1 (luminescence) = 4.27e5; inactive.
ClC-a (Chloride channel-a) [DRSC14947] showed stable assay Renilla, run 1 (luminescence) = 5968; stable assay firefly, run 1 (luminescence) = 3.60e5; inactive.
ClC-a (Chloride channel-a) [DRSC14948] scored stable assay Renilla, run 1 (luminescence) = 6322; stable assay firefly, run 1 (luminescence) = 4.01e5; inactive.
Knock-down of ClC-a (Chloride channel-a) [DRSC16142] resulted in: stable assay Renilla, run 1 (luminescence) = 7578; stable assay firefly, run 1 (luminescence) = 3.89e5; inactive.
Against Glut3 (Glucose transporter type 3) [DRSC16681] the deposit lists stable assay Renilla, run 1 (luminescence) = 8017; stable assay firefly, run 1 (luminescence) = 5.42e5; inactive.
Against h-cup + Rbp [DRSC14990] the deposit lists stable assay Renilla, run 1 (luminescence) = 6822; stable assay firefly, run 1 (luminescence) = 5.02e5; inactive.
